The values below come from patent US6573282B1 (priority 1995, dated 2003).

This experiment concerns formalin-induced nociception. Kind of experiment: Formalin-induced flinching (early and late/tonic phase), intrapaw injection. The format is in vivo, rat.

`CN1CC[C@]23c4c5ccc(O)c4O[C@H]2[C@@H](O)C=C[C@H]3[C@H]1C5.O=S(=O)(O)O` [morphine, morphine sulfate]: the “Formalin-Induced Flinching (Late Phase) % Maximal Efficacy” value amounted to 83% and the “Formalin-Induced Flinching (Late Phase) ED50” value worked out at 72 μg i. paw.
